T/C and survivor count data for three molecules are collected here from PubChem BioAssay AID248 (DTP/NCI, 2004).

The list does not hold the whole screen: it gathers tests that were run many times, whatever their T/C, doses with no T/C, and many T/C values between a quarter and a half above the control. Further doses and runs are listed elsewhere. T/C: endpoint of the treated group in % of that of the vehicle group. Some entries give survivors of the animals treated and no T/C: the source files T/C as zero there, which appears to mark a toxic dose or a test without result, not a measured value. Some doses without a T/C left all or most animals alive at the check, yet need not have been tolerated: survival well below the control is almost never listed, so the zero probably covers shortened survival too. Counts of survivors are from the toxicity check (mostly the fifth day) where no day follows; animals may have died later. Schedule codes are those of the source, read here as Q, the interval in days (D) or hours (H), X, the number of doses. Some doses were run more than once; the values are given in rising order. Where survival is the endpoint, the PubChem record calls one and a half times the control and up active, and a quarter to a half above the control has no call in these data; cut-offs in other NCI protocols can differ. Some T/C values are followed by the survivors on the day toxicity was checked, most often the fifth; where none is given, no animal had died by that day.

The test deals with L1210 leukemia ip in BDF1 mice, survival T/C. The test is described as follows: NCI In Vivo Anticancer Drug Screen. Data for tumor model L1210 Leukemia (intraperitoneal) in B6D2F1 (BDF1) mice. The note with it: higher T/C = longer survival.

Regarding `N/C(=N\O)c1cn(C2OC(CO)C(O)C2O)c2ncnc(N)c12` (stereo not given), the T/C runs as follows: (T/C endpoint: mean survival time, dose: 0.37 mg/kg/injection, schedule: Q01DX009 (ip), vehicle: saline) 125 % of control; (T/C endpoint: mean survival time, dose: 0.39 mg/kg/injection, schedule: Q01DX005 (ip), vehicle: saline) 130 % of control; (T/C endpoint: mean survival time, dose: 0.5 mg/kg/injection, schedule: Q01DX009 (ip), vehicle: saline) 128 % of control; (T/C endpoint: mean survival time, dose: 0.5 mg/kg/injection, schedule: Q03HX008 (ip), vehicle: saline) 128 % of control; (T/C endpoint: mean survival time, dose: 0.5 mg/kg/injection, schedule: Q03HX016 (ip), vehicle: saline) 134 % of control; (T/C endpoint: mean survival time, dose: 0.5 mg/kg/injection, schedule: Q03HX024 (ip), vehicle: saline, evaluated on day 30) 142 % of control. The T/C runs as follows: (T/C endpoint: mean survival time, dose: 0.5 mg/kg/injection, schedule: Q03HX024 (ip), vehicle: saline, evaluated on day 60) 130 % of control; (T/C endpoint: mean survival time, dose: 0.57 mg/kg/injection, schedule: Q01DX009 (ip), vehicle: saline) 127 % of control; (T/C endpoint: mean survival time, dose: 0.85 mg/kg/injection, schedule: Q01DX009 (ip), vehicle: saline) 138 % of control; (T/C endpoint: mean survival time, dose: 1.0 mg/kg/injection, schedule: Q01DX005 (ip), vehicle: saline) 132 % of control; (T/C endpoint: mean survival time, dose: 1.0 mg/kg/injection, schedule: Q01DX009 (ip), vehicle: saline, evaluated on day 30) 142, 146, 149 % of control; (T/C endpoint: mean survival time, dose: 1.0 mg/kg/injection, schedule: Q01DX009 (ip), vehicle: saline, evaluated on day 60) 140 % of control. In addition, the T/C is 142 % of control (T/C endpoint: mean survival time, dose: 1.0 mg/kg/injection, schedule: Q01DX015 (ip), vehicle: carboxymethylcellulose (CMC)); 138 % of control (T/C endpoint: mean survival time, dose: 1.0 mg/kg/injection, schedule: Q03HX016 (ip), vehicle: saline); 139 % of control (T/C endpoint: mean survival time, dose: 1.0 mg/kg/injection, schedule: Q03HX024 (ip), vehicle: saline); 141 % of control (T/C endpoint: mean survival time, dose: 1.8 mg/kg/injection, schedule: Q01DX009 (ip), vehicle: saline); 141 % of control (T/C endpoint: mean survival time, dose: 1.8 mg/kg/injection, schedule: Q01DX015 (ip), vehicle: carboxymethylcellulose (CMC)); 144 % of control (T/C endpoint: mean survival time, dose: 2.0 mg/kg/injection, schedule: Q01DX005 (ip), vehicle: saline). Further, the T/C is 149 % of control (T/C endpoint: mean survival time, dose: 2.0 mg/kg/injection, schedule: Q01DX009 (ip), vehicle: saline, evaluated on day 30); 138 % of control (T/C endpoint: mean survival time, dose: 2.0 mg/kg/injection, schedule: Q01DX009 (ip), vehicle: saline, evaluated on day 60); 148 % of control (T/C endpoint: mean survival time, dose: 2.0 mg/kg/injection, schedule: Q03HX008 (ip), vehicle: saline); 141 % of control (T/C endpoint: mean survival time, dose: 2.0 mg/kg/injection, schedule: Q03HX016 (ip), vehicle: saline); 136 % of control (T/C endpoint: mean survival time, dose: 2.0 mg/kg/injection, schedule: Q04DX003 (ip), vehicle: saline); 142 % of control (T/C endpoint: mean survival time, dose: 3.0 mg/kg/injection, schedule: Q01DX015 (ip), vehicle: carboxymethylcellulose (CMC)). The T/C is 145 % of control (T/C endpoint: mean survival time, dose: 3.13 mg/kg/injection, schedule: Q01DX009 (ip), vehicle: saline); 137 % of control (T/C endpoint: mean survival time, dose: 4.0 mg/kg/injection, schedule: Q01DX009 (ip), vehicle: saline); 135 % of control (T/C endpoint: mean survival time, dose: 4.0 mg/kg/injection, schedule: Q04DX003 (ip), vehicle: saline, evaluated on day 30); 149 % of control (T/C endpoint: mean survival time, dose: 4.0 mg/kg/injection, schedule: Q04DX003 (ip), vehicle: saline, evaluated on day 60); 132 % of control (T/C endpoint: mean survival time, dose: 6.6 mg/kg/injection, schedule: Q01DX001 (ip), vehicle: carboxymethylcellulose (CMC)); 143 % of control (T/C endpoint: mean survival time, dose: 6.6 mg/kg/injection, schedule: Q01DX001 (ip), vehicle: saline). Further, the T/C runs as follows: (T/C endpoint: mean survival time, dose: 8.0 mg/kg/injection, schedule: Q01DX009 (ip), vehicle: saline) 142 % of control; (T/C endpoint: mean survival time, dose: 8.0 mg/kg/injection, schedule: Q08DX002 (ip), vehicle: saline) 129 % of control; (T/C endpoint: mean survival time, dose: 10.0 mg/kg/injection, schedule: Q01DX001 (ip), vehicle: carboxymethylcellulose (CMC)) 134 and 148 % of control; (T/C endpoint: mean survival time, dose: 10.0 mg/kg/injection, schedule: Q01DX001 (ip), vehicle: saline) 143 % of control; (T/C endpoint: mean survival time, dose: 12.5 mg/kg/injection, schedule: Q01DX001 (ip), vehicle: other) 139 % of control; (T/C endpoint: mean survival time, dose: 12.5 mg/kg/injection, schedule: Q01DX001 (ip), vehicle: water) 136 % of control. Moreover, the T/C was 143 % of control (T/C endpoint: mean survival time, dose: 15.0 mg/kg/injection, schedule: Q01DX001 (ip), vehicle: carboxymethylcellulose (CMC)); 148 % of control (T/C endpoint: mean survival time, dose: 15.0 mg/kg/injection, schedule: Q01DX001 (ip), vehicle: saline); 147 % of control (T/C endpoint: mean survival time, dose: 16.0 mg/kg/injection, schedule: Q04DX003 (ip), vehicle: saline); 137 % of control (T/C endpoint: mean survival time, dose: 16.0 mg/kg/injection, schedule: Q08DX002 (ip), vehicle: saline); 135 % of control (T/C endpoint: mean survival time, dose: 20.0 mg/kg/injection, schedule: Q01DX001 (ip), vehicle: carboxymethylcellulose (CMC)); 145 % of control [7 of 10 alive] (T/C endpoint: mean survival time, dose: 32.0 mg/kg/injection, schedule: Q01DX001 (ip), vehicle: saline). Also, the T/C by setting is: (T/C endpoint: mean survival time, dose: 32.0 mg/kg/injection, schedule: Q04DX003 (ip), vehicle: saline, evaluated on day 30) 129 % of control; (T/C endpoint: mean survival time, dose: 32.0 mg/kg/injection, schedule: Q04DX003 (ip), vehicle: saline, evaluated on day 60) 140 % of control; (T/C endpoint: mean survival time, dose: 40.0 mg/kg/injection, schedule: Q01DX001 (ip), vehicle: carboxymethylcellulose (CMC)) 137 % of control; (T/C endpoint: median survival time, dose: 1.0 mg/kg/injection, schedule: Q01DX009 (ip), vehicle: saline) 137 % of control; (T/C endpoint: median survival time, dose: 2.0 mg/kg/injection, schedule: Q01DX009 (ip), vehicle: saline) 133 [5 of 6 alive] and 137 % of control; (T/C endpoint: median survival time, dose: 4.0 mg/kg/injection, schedule: Q01DX009 (ip), vehicle: saline) 125 and 133 % of control. Besides, the survivor count is 8 of 10 (T/C endpoint: mean survival time, dose: 4.0 mg/kg/injection, schedule: Q03HX008 (ip), vehicle: saline); 8 of 10 (T/C endpoint: mean survival time, dose: 4.0 mg/kg/injection, schedule: Q03HX016 (ip), vehicle: saline); 1 of 6 and 6 of 10 (T/C endpoint: mean survival time, dose: 4.0 mg/kg/injection, schedule: Q03HX024 (ip), vehicle: saline); 6 of 6 (T/C endpoint: mean survival time, dose: 12.5 mg/kg/injection, schedule: Q01DX009 (ip), vehicle: saline); 2 of 6 (T/C endpoint: mean survival time, dose: 20.0 mg/kg/injection, schedule: Q01DX009 (ip), vehicle: saline); 5 of 6 (T/C endpoint: mean survival time, dose: 25.0 mg/kg/injection, schedule: Q01DX009 (ip), vehicle: saline). In addition, the survivor count is recorded as 0 of 6 (T/C endpoint: mean survival time, dose: 50.0 mg/kg/injection, schedule: Q01DX009 (ip), vehicle: saline); 0 of 4 (T/C endpoint: mean survival time, dose: 80.0 mg/kg/injection, schedule: Q01DX001 (ip), vehicle: carboxymethylcellulose (CMC)); 0 of 4 (T/C endpoint: mean survival time, dose: 100.0 mg/kg/injection, schedule: Q01DX001 (ip), vehicle: carboxymethylcellulose (CMC)); 0 of 10 (T/C endpoint: mean survival time, dose: 100.0 mg/kg/injection, schedule: Q01DX001 (ip), vehicle: other); 1 of 10 (T/C endpoint: mean survival time, dose: 100.0 mg/kg/injection, schedule: Q01DX001 (ip), vehicle: water); 0 of 6 (T/C endpoint: mean survival time, dose: 100.0 mg/kg/injection, schedule: Q01DX009 (ip), vehicle: saline). For the same molecule, the survivor count is reported as 0 of 4 (T/C endpoint: mean survival time, dose: 200.0 mg/kg/injection, schedule: Q01DX001 (ip), vehicle: carboxymethylcellulose (CMC)) and 0 of 4 (T/C endpoint: mean survival time, dose: 400.0 mg/kg/injection, schedule: Q01DX001 (ip), vehicle: carboxymethylcellulose (CMC)).
As for `O=C(Nc1ccc(C(=O)O)cc1)Nc1cccc(C(F)(F)F)c1`, the survivor count (T/C endpoint: mean survival time, dose: 400.0 mg/kg/injection, schedule: Q01DX009 (ip), vehicle: saline with Tween-80) is on record as 0 of 6.
For `COc1cc(C(=O)NC(CCC(=O)O)C(=O)O)ccc1N(C)Cc1cnc2nc(N)nc(N)c2n1` (stereo not given), the T/C (T/C endpoint: mean survival time, dose: 12.5 mg/kg/injection, schedule: Q01DX009 (ip), vehicle: sodium bicarbonate) is 145 % of control and the T/C (T/C endpoint: mean survival time, dose: 50.0 mg/kg/injection, schedule: Q01DX009 (ip), vehicle: sodium bicarbonate) was 140 % of control.
